Source: PubChem BioAssay AID1259424 (University of Nebraska Medical Center, 2018)

Purpose: 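Find knockdowns that reproduce the expression shifts seen after KSR1 loss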 (primary screen)
Cells: human HCT116 colon cancer cells
Reagent: siRNA pool against human genes, 50 nM
Measurement: 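Six signature mRNAs by branched-DNA multiplex assay, scaled to two housekeeping genes and non-targeting median, log2; matched to mean KSR1 knockdown profile by Pearson correlation and euclidean distance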
Scale: mean correlation with KSR1 profile: higher = expression change more like KSR1 knockdown
In all, the deposit lists about 14,000 reagents; shown is an unselected part. 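Higher correlation or smaller distance means closer resemblance to KSR1 loss; control wells, including KSR1 knockdowns, recur on many plates.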 Not all columns of the deposit are shown. Reagent sequences are not shown. The record does not give: the time to read-out.

HIVEP1 | mean correlation with KSR1 profile = -0.264
CTC1 | mean correlation with KSR1 profile = 0.726
IGHM | mean correlation with KSR1 profile = 0.581
GKN1 | mean correlation with KSR1 profile = -0.577
PRKAA1 | mean correlation with KSR1 profile = 0.273
SRRM1 | mean correlation with KSR1 profile = 0.0471
DRC11 | mean correlation with KSR1 profile = 0.246

2 entries from above, set out differently:
gene	mean correlation with KSR1 profile
GKN1	-0.577
PRKAA1	0.273

Further reagents follow:
FCGR2A | mean correlation with KSR1 profile = 0.448
MKKS | mean correlation with KSR1 profile = 0.164
FARP1 | mean correlation with KSR1 profile = 0.736
TINF2 | mean correlation with KSR1 profile = -0.439
UTP3 | mean correlation with KSR1 profile = 0.458
